Library screening results

The chains behind the UniProt entries cited, without tags or fusion partners.
UniProt E9BF75, entry or part of it: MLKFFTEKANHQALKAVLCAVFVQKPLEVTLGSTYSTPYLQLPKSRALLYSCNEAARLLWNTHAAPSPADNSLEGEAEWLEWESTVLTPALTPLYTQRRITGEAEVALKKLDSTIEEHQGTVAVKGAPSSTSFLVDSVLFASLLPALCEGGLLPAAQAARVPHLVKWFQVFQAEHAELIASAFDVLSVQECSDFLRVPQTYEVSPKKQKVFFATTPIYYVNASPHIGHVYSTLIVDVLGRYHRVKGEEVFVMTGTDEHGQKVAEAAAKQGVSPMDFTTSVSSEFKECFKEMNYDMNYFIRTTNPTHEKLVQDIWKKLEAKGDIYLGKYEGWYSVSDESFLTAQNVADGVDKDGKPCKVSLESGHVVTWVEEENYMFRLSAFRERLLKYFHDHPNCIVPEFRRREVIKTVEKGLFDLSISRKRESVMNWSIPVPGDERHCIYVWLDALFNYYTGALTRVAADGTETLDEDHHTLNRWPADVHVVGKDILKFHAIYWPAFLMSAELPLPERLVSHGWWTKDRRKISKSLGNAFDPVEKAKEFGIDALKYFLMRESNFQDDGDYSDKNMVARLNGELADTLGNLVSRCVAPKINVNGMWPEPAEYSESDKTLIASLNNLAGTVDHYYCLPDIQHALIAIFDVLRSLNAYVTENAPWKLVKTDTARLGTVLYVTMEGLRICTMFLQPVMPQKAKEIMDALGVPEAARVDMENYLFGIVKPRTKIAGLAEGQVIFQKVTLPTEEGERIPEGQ

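Primary screen of methionyl-tRNA synthetase; the read-out is not stated. Target: Methionyl-tRNA synthetase (putative), Leishmania donovani (UniProt E9BF75). The test concentration is not given. Values are per cent inhibition. Size under these conditions: about 68,000 compounds, about 24 of them at 50% or above in at least one test.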

All values are in %. The record does not define 0% and 100%; most values in the screen are far below 50% and negative numbers occur (in some assays of this library far below -100). Compounds were drawn at random from those tested, without regard to their results.

| # | Compound | inhibition |
|---|---|---|
| 1 | `O=C(c1n[nH]c2c1CN(C1CCOC1)CC2)N1CCOCC1` (centres unmarked) | 20.17 |
| 2 | `Cc1cccc(NC(=O)c2cncc(C3CCNCC3)n2)n1` | 13.12 |
| 3 | `Fc1ccc(CN2CCCn3cnc(COCC4CC4)c3C2)cc1` | 10.75 |
| 4 | `CCN1CCN(c2ccc(C(=O)NCc3cc(C)no3)cc2F)CC1` | 20.96 |
| 5 | `CN1CCc2[nH]cnc2C12CCN(Cc1ccc(S(C)(=O)=O)cc1)CC2` | 16.32 |
| 6 | `CN(C)C(C(=O)NCC1(C)COC1)c1cccc(F)c1` (centres unmarked) | 14.29 |
| 7 | `CC(C)(CN1CCC(Cc2ccc(CO)cc2)C1)N1CCOCC1` (centres unmarked) | 13.56 |
| 8 | `O=C(c1nnn(-c2ccc(F)cc2)n1)N(CCO)Cc1ccccc1` | 9.322 |
| 9 | `O=S(=O)(CC1CCCCO1)Nc1cnn(CC(F)F)c1` (centres unmarked) | 28.76 |
| 10 | `COCC1CN(Cc2ccc(F)cc2)Cc2nn(C)cc21` (centres unmarked) | 7.333 |
| 11 | `Cn1ccnc1CN1CCC(F)(F)C2(CCN(c3cccnc3)C2)C1` (centres unmarked) | 12.92 |
| 12 | `COCCNC(=O)C1CN(Cc2nccs2)Cc2ccnn2C1` (centres unmarked) | 18.1 |
| 13 | `Cc1ccc(CN(C)C(=O)c2n[nH]c(N)c2-c2ccccc2)o1` | 15.92 |
| 14 | `O=S(=O)(C1CC1)N1CCO[C@H]2[C@H](OCC3CC3)CC[C@@H]21` | -1.918 |
| 15 | `O=C(c1cscn1)N1CC[C@H]2[C@@H]1CCC(=O)N2c1ccccc1` | 1.648 |
| 16 | `Cc1nc(C2CCN2c2ncccn2)cc(N(C)C)n1` (centres unmarked) | 20 |
| 17 | `CN1CCN(CC2CC2)C(=O)c2cnc(N3CCC(CO)CC3)nc21` | 11.41 |
| 18 | `Nc1cccnc1N1CCC(c2ccccc2)CC1` | 8.086 |
| 19 | `CCCOc1ccc2c(c1)OCC(C(=O)NC(C)Cn1ccnc1)=C2` (centres unmarked) | 11.17 |
| 20 | `Cc1nc(CO[C@@H]2CN(Cc3nccs3)[C@@H]3COC[C@@H]32)cs1` | 16.88 |
| 21 | `O=C1CCCN1CCCNCc1cc(O)c2cccc(Cl)c2n1` | 5.625 |
| 22 | `Cn1cncc1CNC1CC2(CCN(S(C)(=O)=O)CC2)c2ccccc21` (centres unmarked) | 16.3 |
| 23 | `COC(=O)CN1CCCn2nc(CCC(=O)N3CCCC3)cc2C1` | 1.907 |
| 24 | `COCCN1C(=O)[C@]2(CC[C@@H]3CN(C(=O)NC4CCCC4)C[C@@H]32)N=C1C` | 16.32 |
| 25 | `Cc1cc2n(n1)CC(CNCc1ccc(-n3ccnc3C)nc1)CN2` (centres unmarked) | 21.86 |
| 26 | `Cc1ccccc1[C@@H]1CN(CCOCCO)C[C@H]1C(=O)O` | 16.62 |
| 27 | `COc1ccc(Br)cc1CN(C)C(C)c1nc(C(C)C)no1` (centres unmarked) | 7.904 |
| 28 | `CCOCCCNC(=O)c1cc(Br)c2c(c1)OCCO2` | 18.77 |
| 29 | `Cc1nc2n(n1)CC(NCC(=O)NCC1(c3ccccc3)CC1)CC2` (centres unmarked) | 11.56 |
| 30 | `CCOc1nc2cccnc2n(CC(=O)NCCOC)c1=O` | 11.76 |
| 31 | `CC(NC(=O)NCc1ccccc1Cl)c1ccccn1` (centres unmarked) | 15.3 |
| 32 | `Cc1nc2cc(-c3nccn3C)nn2c(N2CCCC(O)C2)c1C` (centres unmarked) | 3.438 |
| 33 | `CCc1ncnc2c1CCN(S(=O)(=O)c1ccccc1)CC2` | 5.865 |
| 34 | `O=C(NCCCN1CCOCC1)C1CCCN(Cc2ccco2)C1` (centres unmarked) | 13.97 |
| 35 | `Cc1cccc(CN2C[C@@H]3CN(C(=O)c4ccco4)C[C@@H]3C2=O)n1` | 14.01 |
| 36 | `COc1ccc(CN(Cc2cc(C)no2)C2CC2)cc1` | 4.715 |
| 37 | `Cc1nc(C)n(CC2CCCN(CCC(=O)NC3CCCC3)C2)n1` (centres unmarked) | 14.92 |
| 38 | `CC(C)(C)c1noc(OCC(=O)NCC(F)(F)F)n1` | 8.152 |
| 39 | `Cc1cc(C)n(CC2CCCN2CCCS(=O)(=O)N(C)C)n1` (centres unmarked) | 14.13 |
| 40 | `O=C(CCn1ccccc1=O)N1CCN(Cc2cccc(Cl)c2)CC1` | 8.533 |
| 41 | `CCn1cc(NC(=O)C(C)n2ncc(Cl)c2C)c(C(=O)OC)n1` (centres unmarked) | 2.611 |
| 42 | `CC(C)(C)c1ccc(CN2C[C@H]3C[C@H](O)C[C@H]3C2)c(OCC(N)=O)c1` | 14.6 |
| 43 | `COCCN1CCCC(c2nccnc2-c2cccc(Cl)c2)C1` (centres unmarked) | 12.79 |
| 44 | `Cc1cnn(CC2CCCN2C(=O)c2ccc3cc[nH]c3c2)c1` (centres unmarked) | 13.89 |
| 45 | `O=C(C1CCCCC1)N1CCC2(CC1)OCCO2` | 23.1 |
| 46 | `O=C(O)c1c(-c2ccncc2)ncc2c1CCN(C1CCOC1)C2` (centres unmarked) | 11.23 |
| 47 | `COC(=O)c1cc(C(=O)N2CCCC(C)C2)n(-c2ccccc2)n1` (centres unmarked) | 12.57 |
| 48 | `COCC(=O)N[C@H](C)c1onc(-c2ccc(OC)cc2)c1C(=O)O` | -1.695 |
| 49 | `CC(C)(C)SCC(=O)NC(C)(C(N)=O)c1cccc(Cl)c1` (centres unmarked) | 11.71 |
| 50 | `Cc1cc(CNCC2(O)CCOCC2)ccc1F` | 20.85 |
| 51 | `COC1CCC[C@@H]2CN(Cc3csc(C)n3)C[C@H]12` (some centres unmarked) | 16.25 |
| 52 | `Cc1cc(C(=O)CN2CCN(c3cnccn3)CC2)c(C)n1C(C)C` | 17.16 |
| 53 | `Cn1/c(=N/C(=O)CSCC(=O)Nc2nccs2)sc2ccccc21` | 2.878 |
| 54 | `Cc1nonc1OCCNC(=O)COc1ccc(Cl)cc1Cl` | 7.895 |
| 55 | `Cc1ccc(-n2ccnc2)c(C(=O)NCCOCC(F)(F)F)c1` | 19.23 |
| 56 | `Cc1cnn(CC2CCCN2Cc2nnc(C)o2)c1` (centres unmarked) | 20.56 |
| 57 | `Cc1cccc(CN2C[C@H]3CCC[C@@]3(COCc3csc(C)n3)C2)n1` | 18.25 |
| 58 | `CC(Cc1ccco1)NC(=O)Nc1cnn(CC(N)=O)c1` (centres unmarked) | 9.722 |
| 59 | `CC(C)(C)c1ncc2c(n1)CN(C(=O)c1ccc(-n3cnnn3)cc1)C2` | 12.06 |
| 60 | `Cc1cc(C)nc(N2CCC(c3cncc(-n4ccnc4)n3)CC2)n1` | 11.06 |
| 61 | `O=C1COC2(COCCN(c3cnccn3)C2)CN1c1cccc(F)c1` (centres unmarked) | 16.25 |
| 62 | `Cc1cccc(N2N=C(C(=O)NC(C)CCc3ccco3)CCC2=O)c1` (centres unmarked) | 4.839 |
| 63 | `Cc1ccc(C)c(NC(=O)Cn2cc(I)cn2)c1` | 6.997 |
| 64 | `O=C(NC[C@]12COC[C@H]1CN(Cc1cccs1)C2)c1ccsc1` | 5.229 |
| 65 | `c1cn(CC2CCOCC2)c(-c2cc(CN3CCCC3)cs2)n1` | 6.186 |
| 66 | `CN1CCc2nc(C3CCN(C(=O)CCC4CCCC4)CC3)ncc2C1` | 40.77 |
| 67 | `Cc1cc(C)c(CNC(=O)N2CCC(N3CCNC3=O)CC2)c(=O)[nH]1` | 13.71 |
| 68 | `COc1ccc(-n2ccnc2-c2cnc(N(C)C)nc2)cc1OC` | 9.409 |
| 69 | `COc1ccc(C)cc1CNC(=O)C1=NN(c2ccccc2)C(=O)CN1` | 10.68 |

Source: ChEMBL document CHEMBL3988442, “University of Dundee, Small-Polar-MMV Screening Library” (2021).